Experimental data taken from the supplement of paper PMC12009310.
Structures can show the parent of a compound that is named as a salt. ± gives the standard deviation of the averaged measurements. This is one part of the list. Baselines shift from plate to plate; read single values as rough.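 The cells are a mouse kidney inner medullary collecting duct line, silenced either for the ciliary gene Rpgrip1l or with a non-targeting control siRNA. Primary scores are means of two runs against batch controls; in the follow-up screen a hit raised cilia by at least 2 over its matching control, and compounds dropping cell number by 2 or more were excluded. The cells are a mouse kidney inner medullary collecting duct line, silenced either for the ciliary gene Rpgrip1l or with a non-targeting control siRNA.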

Key:
[1] = system: mIMCD3; assay: robust z score of cell number vs plate controls; higher = more cells (less cytotoxic); conditions: 10 µM, 48 h
[2] = system: mIMCD3; assay: robust z cell number difference from vehicle control (robust z score difference); higher = more cells; conditions: 10 µM, 48 h
[3] = system: mIMCD3; assay: robust z score of cilia incidence (% cells with single cilium) vs plate controls; higher = more ciliated cells; conditions: 10 µM; 48 h; siRNA: siScr
[4] = system: mIMCD3; assay: robust z cilia incidence difference from vehicle control (robust z score difference); higher = more ciliated cells; conditions: 10 µM; 48 h; siRNA: siScr
[5] = system: mIMCD3; assay: robust z cilia incidence difference from vehicle control (robust z score difference); higher = more ciliated cells (rescue); conditions: 10 µM; 48 h; siRNA: siRpgrip1l
[6] = system: mIMCD3; assay: robust z score of cilia incidence (% cells with single cilium) vs plate controls; higher = more ciliated cells (rescue of cilia loss); conditions: 10 µM; 48 h; siRNA: siRpgrip1l

Structure (SMILES) | robust z score of cell number ([1]; siRNA: siRpgrip1l) | robust z score of cell number ([1]; siRNA: siScr) | robust z cell number difference ([2]; siRNA: siRpgrip1l) | robust z cell number difference ([2]; siRNA: siScr) | robust z score of cilia incidence [3] | robust z cilia incidence difference [4] | robust z cilia incidence difference [5] | robust z score of cilia incidence [6]
CC(C)NC[C@@H](O)COc1cccc2ccccc12 [(R)-(+)-Propranolol hydrochloride] | 1.58 ± 0.57 | 0.92 ± 3.2 | -8.69 | -5.97 ± 1.6 | 4.17 ± 1.1 | -0.998 ± 0.045 | -14.2 | -0.714 ± 2.6
CC(C)C[C@H](NC(=O)N1CCCCCC1)C(=O)N[C@H](Cc1cn(C)c2ccccc12)C(=O)N[C@H](Cc1ccccn1)C(=O)O | -4.02 ± 2.9 | -0.182 ± 0.62 | 1.36 | -0.973 ± 1.6 | 1.57 ± 1.6 | 2.09 ± 3.1 | -1.57 | -14.2 ± 4.7
COC(=O)[C@H]1[C@H]2C[C@@H]3c4[nH]c5cc(OC)ccc5c4CCN3C[C@H]2C[C@@H](OC(=O)c2cc(OC)c(OC)c(OC)c2)[C@@H]1OC [Reserpine] | -5.39 ± 7.3 | -3.01 ± 3.4 | -12.6 | -5.71 ± 8.4 | -12.6 ± 1.8 | -3.97 ± 9.4 | -27.1 | -9.79 ± 4
Cc1cc(C(C)(C)C)c(O)c(C)c1CC1=NCCN1 [Oxymetazoline hydrochloride] | -0.944 ± 2.5 | -0.109 ± 3.1 | -13.6 | -7.09 ± 11 | 6.97 ± 2.4 | -3.06 ± 7 | -10.8 | -6.88 ± 4.5
CC(C)(Oc1ccc(Cl)cc1)C(=O)O [Clofibric acid] | 0.0253 ± 0.88 | -1.29 ± 2.8 | 3.4 | 2 ± 5.1 | 2.66 ± 1.2 | -5.32 ± 6.1 | 2.76 | -2.74 ± 0.62
O=c1cc(-c2ccccc2)oc2cc(O)c(O)c(O)c12 [Baicalein] | -3.45 ± 9.6 | -6.98 ± 3.7 | -16.2 | -11.1 ± 7.1 | 5.37 ± 2.3 | -10.3 ± 13 | -44.1 | -8.19 ± 8.6
CC(C)NC[C@H](O)COc1cccc2ccccc12 [(S)-(-)-Propranolol hydrochloride] | -2.25 ± 0.098 | -1.96 ± 1.2 | -16.3 | -8.69 ± 11 | 4.75 ± 0.81 | -9.72 ± 17 | -26.7 | 0.58 ± 1.3
